Some of these results come from one statement about several compounds together.
Tests used:
Type in all cases: in vivo
Venturia inaegualis = test: Example B-5: residual protective activity against Venturia inaegualis on apples (scab on apple); details: 0.02% active substance, spray; apple seedlings cv. McIntosh; inoculated one day after application
Plasmopara viticola = test: Example B-4: effect against Plasmopara viticola on grapevine (grape downy mildew); details: 0.02% active substance, spray; grape seedlings cv. Gutedel; inoculated one day after application; assessed after 6 days incubation
Erysiphe graminis = test: Example B-6: residual protective activity against Erysiphe graminis on barley (powdery mildew on barley); details: 0.02% active substance, spray; barley cv. Regina; evaluated 6 days after infection

Structure (SMILES) | control of the fungal infection (Venturia inaegualis) | control of the fungal infection (Plasmopara viticola) | control of the fungal infection (Erysiphe graminis)
CC1=NN(c2cc(-c3ccnc(Nc4cccc(Cl)c4)n3)ccn2)C(=O)C1(C)C [1.01/028, 2-{4-[2-(3-Chloro-phenylamino)-pyrimidin-4-yl]-pyridin-2-yl}-4,4,5-trimethyl-2,4-dihydro-pyrazol-3-one] | over 70% | over 70% | over 70%
CCC1(C)C(=O)N(c2cc(-c3ccnc(Nc4cccc(Cl)c4)n3)ccn2)N=C1C (centres unmarked) [1.03/028, 2-{4-[2-(3-Chloro-phenylamino)-pyrimidin-4-yl]-pyridin-2-yl}-4-ethyl-4,5-dimethyl-2,4-dihydro-pyrazol-3-one] |  |  | over 70%
CC1=NN(c2cc(-c3ccnc(Nc4cccc(Cl)c4)n3)ccn2)C(=O)C12CC2 [1.04/028, 5-{4-[2-(3-Chloro-phenylamino)-pyrimidin-4-yl]-pyridin-2-yl}-7-methyl-5,6-diaza-spiro[2.4]hept-6-en-4-one] |  | over 70% | over 70%
Cc1cc(=O)n(-c2cc(-c3ccnc(Nc4cccc(Cl)c4)n3)ccn2)n1C [2.03/028, 2-{4-[2-(3-Chloro-phenylamino)-pyrimidin-4-yl]-pyridin-2-yl}-1,5-dimethyl-1,2-dihydro-pyrazol-3-one] | over 70% |  | 
Cc1cn(C)n(-c2cc(-c3ccnc(Nc4cccc(Cl)c4)c3)ccn2)c1=O [2.05/028, 2-{4-[2-(3-Chloro-phenylamino)-pyridin-4-yl]-pyridin-2-yl}-1,4-dimethyl-1,2-dihydro-pyrazol-3-one] |  |  | over 70%
COCc1c(C)c(=O)n(-c2cc(-c3ccnc(Nc4cccc(Cl)c4)n3)ccn2)n1C [2.09/028, 2-{4-[2-(3-Chloro-phenylamino)-pyrimidin-4-yl]-pyridin-2-yl}-5-methoxymethyl-1,4-dimethyl-1,2-dihydro-pyrazol-3-one] |  |  | over 70%
COc1cc(C)nn1-c1cc(-c2ccnc(Nc3cccc(Cl)c3)n2)ccn1 [3.01/028, (3-Chloro-phenyl)-{4-[2-(5-methoxy-3-methyl-pyrazol-1-yl)-pyridin-4-yl]-pyrimidin-2-yl}-amine] |  | over 70% | 
COCc1cc(OC)n(-c2cc(-c3ccnc(Nc4cccc(Cl)c4)n3)ccn2)n1 [3.014/028, (3-Chloro-phenyl)-{4-[2-(5-methoxy-3-methoxymethyl-pyrazol-1-yl)-pyridin-4-yl]-pyrimidin-2-yl}-amine] |  |  | over 70%

From US7205301B2, “Microbiocidal N-phenyl-n-[4-(4-pyridyl)-2-pyrimidin-2-yl]-amine derivatives” (Syngenta Crop Protection, Inc., priority 2001, dated 2007)
